These are yes or no findings as the source states them, for the method shown. Some binding calls cover weakened binding; strength is not graded here.
Molecular target: IBV spike ectodomain (avian infectious bronchitis coronavirus, strain M41) (avian infectious bronchitis coronavirus (IBV), strain M41) (UniProt P12651)
Test: cryo-EM structure; IBV spike ectodomain 0.35 mg/ml in 2 mM Tris pH7.2 and 20 mM NaCl, plunge-frozen; pre-fusion state; three-fold noncrystallographic symmetry constraints in refinement; both purified

B1: IBV spike ectodomain (avian infectious bronchitis coronavirus, strain M41) (domain or fragment)
chain: LYDSSSYVYYYQSAFRPPNGWHLHGGAYAVVNISSESNNAGSSPGCIVGTIHGGRVVNASSIAMTAPSSGMAWSSSQFCTAHCNFSDTTVFVTHCYKYDGCPITGMLQKNFLRVSAMKNGQLFYNLTVSVAKYPTFKSFQCVNNLTSVYLNGDLVYTSNETTDVTSAGVYFKAGGPITYKVMRKVKALAYFVNGTAQDVILCDGSPRGLLACQYNTGNFSDGFYPFINSSLVKQKFIVYRENSVNTTFTLHNFTFHNETGANPNPSGVQNILTYQTQTAQSGYYNFNFSFLSSFVYKESNFMYGSYHPSCNFRLETINNGLWFNSLSVSIAYGPLQGGCKQSVFSGRATCCYAYSYGGPSLCKGVYSGELDLNFECGLLVYVTKSGGSRIQTATEPPVITRHNYNNITLNTCVDYNIYGRTGQGFITNVTDSAVSYNYLADAGLAILDTSGSIDIFVVQGEYGLTYYKVNPCEDVNQQFVVSGGKLVGILTSRNETGSQLLENQFYIKITNGTRRFRRSITENVANCPYVSYGKFCIKPDGSIATIVPKQLEQFVAPLLNVTENVLIPNSFNLTVTDEYIQTRMDKVQINCLQYVCGNSLDCRDLFQQYGPVCDNILSVVNSIGQKEDMELLNFYSSTKPAGFNTPFLSNVSTGEFNISLLLTTPSSPRRRSFIEDLLFTSVESVGLPTDDAYKNCTAGPLGFLKDLACAREYNGLLVLPPIITAEMQTLYTSSLVASMAFGGITAAGAIPFATQLQARINHLGITQSLLLKNQEKIAASFNKAIGRMQEGFRSTSLALQQIQDVVNKQSAILTETMASLNKNFGAISSVIQEIYQQLDAIQANAQVDRLITGRLSSLSVLASAKQAEHIRVSQQRELATQKINECVKSQSIRYSFCGNGRHVLTIPQNAPNGIVFIHFSYTPDSFVNVTAIVGFCVKPANASQYAIVPANGRGIFIQVNGSYYITARDMYMPRAITAGDIVTLTSCQANYVSVNKTVITTFVDNDDFDFNDELSKWWNDTKHELPDFDKFNYTVPILDIDSEIDRIQGVIQGLNDSLIDLEKLS
modifications: glycans N-linked to 20 sites
notes: Spike protein of avian infectious bronchitis coronavirus (IBV) strain M41, GenBank ABI26423.1, ectodomain residues 20-1084; transmembrane anchor and intracellular domain replaced by GCN4 and His6 tags; The structural model holds residues 21-1022 except 702-710; The GCN4 tag is a trimerization tag; also called trimeric IBV spike ectodomain; source: Sf9 insect cells (Bac-to-Bac), harvested from …
- binding: binds

From PMC5933801, “Cryo-EM structure of infectious bronchitis coronavirus spike protein reveals structural and functional evolution of coronavirus spike proteins” (PLoS Pathogens, 2018)
